These are yes or no findings as the source states them, for the method shown. Some binding calls cover weakened binding; strength is not graded here.
Molecular target: full-length actinin, mammalian two-hybrid bait (human) (UniProt P35609)
Test: two-hybrid

Sequences of proteins named here, by UniProt entry; tags and fusion partners are left off.
UniProt P35609: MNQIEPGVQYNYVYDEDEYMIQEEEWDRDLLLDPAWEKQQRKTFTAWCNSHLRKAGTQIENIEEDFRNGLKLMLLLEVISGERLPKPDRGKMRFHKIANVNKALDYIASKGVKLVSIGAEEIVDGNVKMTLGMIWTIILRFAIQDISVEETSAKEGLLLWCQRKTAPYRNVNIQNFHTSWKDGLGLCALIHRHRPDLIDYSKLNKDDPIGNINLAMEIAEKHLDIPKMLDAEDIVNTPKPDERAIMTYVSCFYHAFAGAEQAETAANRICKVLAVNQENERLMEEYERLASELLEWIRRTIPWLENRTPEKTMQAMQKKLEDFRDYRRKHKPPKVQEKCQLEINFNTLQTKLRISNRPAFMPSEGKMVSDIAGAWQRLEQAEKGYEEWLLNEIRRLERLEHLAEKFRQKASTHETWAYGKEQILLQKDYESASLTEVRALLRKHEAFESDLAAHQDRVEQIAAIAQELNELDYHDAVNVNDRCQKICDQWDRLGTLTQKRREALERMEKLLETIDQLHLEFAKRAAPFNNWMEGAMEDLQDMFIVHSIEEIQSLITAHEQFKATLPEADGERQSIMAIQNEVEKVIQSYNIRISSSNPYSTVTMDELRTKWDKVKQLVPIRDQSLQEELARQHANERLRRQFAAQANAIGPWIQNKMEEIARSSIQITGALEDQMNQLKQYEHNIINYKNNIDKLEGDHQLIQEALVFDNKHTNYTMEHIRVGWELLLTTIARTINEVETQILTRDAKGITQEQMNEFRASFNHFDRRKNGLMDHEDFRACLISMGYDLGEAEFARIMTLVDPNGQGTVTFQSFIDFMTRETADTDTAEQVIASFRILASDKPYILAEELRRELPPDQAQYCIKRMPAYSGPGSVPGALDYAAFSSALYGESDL

Binder	binding
IGF2BP2 KH domain (residues 161-600), mammalian two-hybrid prey (domain or fragment, UniProt Q9Y6M1 161-599) SSPSPPQRAQRGDHSSREQGHAPGGTSQARQIDFPLRILVPTQFVGAIIGKEGLTIKNITKQTQSRVDIHRKENSGAAEKPVTIHATPEGTSEACRMILEIMQKEADETKLAEEIPLKILAHNGLVGRLIGKEGRNLKKIEHETGTKITISSLQDLSIYNPERTITVKGTVEACASAEIEIMKKLREAFENDMLAVNQQANLIPGLNLSALGIFSTGLSVLSPPAGPRGAPPAAPYHPFTTHSGYFSSLYPHHQFGPFPHHHSYPEQEIVNLFIPTQAVGAIIGKKGAHIKQLARFAGASIKIAPAEGPDVSERMVIITGPPEAQFKAQGRIFGKLKEENFFNPKEEVKLEAHIRVPSSTAGRVIGKGGKTVNELQNLTSAEVIVPRDQTPDENEEVIVRIIGHFFASQTAQRKIREIVQQVKQQEQKYPQGVASQRSK	binds
IGF2BP2 RRM domain (residues 1-160), mammalian two-hybrid prey (domain or fragment, UniProt Q9Y6M1 1-160) MMNKLYIGNLSPAVTADDLRQLFGDRKLPLAGQVLLKSGYAFVDYPDQNWAIRAIETLSGKVELHGKIMEVDYSVSKKLRSRKIQIRNIPPHLQWEVLDGLLAQYGTVENVEQVNTDTETAVVNVTYATREEAKIAMEKLSGHQFENYSFKISYIPDEEV	no binding
